The text below walks through data of PMC10173277.

By UniProt entry, the sequences of proteins in these tests, tags left out. Where a name states a change or a piece, a line headed by the entry shows the natural chain unless it says otherwise.
UniProt P02453: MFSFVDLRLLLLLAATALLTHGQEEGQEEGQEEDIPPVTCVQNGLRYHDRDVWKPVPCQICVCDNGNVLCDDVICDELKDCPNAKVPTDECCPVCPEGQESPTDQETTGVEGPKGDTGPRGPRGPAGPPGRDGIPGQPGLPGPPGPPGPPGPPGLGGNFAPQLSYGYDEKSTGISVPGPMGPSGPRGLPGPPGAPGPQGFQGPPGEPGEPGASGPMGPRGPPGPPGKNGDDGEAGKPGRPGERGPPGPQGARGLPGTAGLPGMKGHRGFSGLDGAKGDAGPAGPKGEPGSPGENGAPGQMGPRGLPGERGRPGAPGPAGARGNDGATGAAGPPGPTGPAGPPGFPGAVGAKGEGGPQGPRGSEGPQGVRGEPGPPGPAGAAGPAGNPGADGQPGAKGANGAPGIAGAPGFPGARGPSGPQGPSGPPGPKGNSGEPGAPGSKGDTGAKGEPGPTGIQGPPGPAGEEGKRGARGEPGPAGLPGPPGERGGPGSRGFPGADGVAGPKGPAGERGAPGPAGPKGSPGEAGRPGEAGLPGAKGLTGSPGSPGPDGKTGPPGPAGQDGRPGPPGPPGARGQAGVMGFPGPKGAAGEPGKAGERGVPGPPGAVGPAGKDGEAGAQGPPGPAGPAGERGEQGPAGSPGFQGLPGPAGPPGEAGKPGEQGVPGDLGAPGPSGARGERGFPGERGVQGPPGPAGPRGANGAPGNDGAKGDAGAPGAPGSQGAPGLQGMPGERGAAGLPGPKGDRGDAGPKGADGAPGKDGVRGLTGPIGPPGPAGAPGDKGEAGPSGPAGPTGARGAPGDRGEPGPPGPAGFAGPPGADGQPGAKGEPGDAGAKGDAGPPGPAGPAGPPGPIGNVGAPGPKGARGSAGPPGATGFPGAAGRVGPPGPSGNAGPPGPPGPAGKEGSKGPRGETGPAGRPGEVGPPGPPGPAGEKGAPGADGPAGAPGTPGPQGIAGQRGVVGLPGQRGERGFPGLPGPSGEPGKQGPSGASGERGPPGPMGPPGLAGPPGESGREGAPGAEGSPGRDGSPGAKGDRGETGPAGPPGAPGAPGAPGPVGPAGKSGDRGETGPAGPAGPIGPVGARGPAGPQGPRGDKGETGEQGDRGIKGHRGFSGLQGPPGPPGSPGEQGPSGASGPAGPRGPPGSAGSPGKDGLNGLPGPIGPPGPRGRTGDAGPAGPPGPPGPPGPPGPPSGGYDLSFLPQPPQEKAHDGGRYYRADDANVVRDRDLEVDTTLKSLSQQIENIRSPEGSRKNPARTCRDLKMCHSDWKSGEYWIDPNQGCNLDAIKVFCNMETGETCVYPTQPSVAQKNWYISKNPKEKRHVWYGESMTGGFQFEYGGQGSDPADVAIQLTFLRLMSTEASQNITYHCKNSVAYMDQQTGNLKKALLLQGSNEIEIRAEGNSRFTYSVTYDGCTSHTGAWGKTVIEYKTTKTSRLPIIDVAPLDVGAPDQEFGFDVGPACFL
UniProt P02465: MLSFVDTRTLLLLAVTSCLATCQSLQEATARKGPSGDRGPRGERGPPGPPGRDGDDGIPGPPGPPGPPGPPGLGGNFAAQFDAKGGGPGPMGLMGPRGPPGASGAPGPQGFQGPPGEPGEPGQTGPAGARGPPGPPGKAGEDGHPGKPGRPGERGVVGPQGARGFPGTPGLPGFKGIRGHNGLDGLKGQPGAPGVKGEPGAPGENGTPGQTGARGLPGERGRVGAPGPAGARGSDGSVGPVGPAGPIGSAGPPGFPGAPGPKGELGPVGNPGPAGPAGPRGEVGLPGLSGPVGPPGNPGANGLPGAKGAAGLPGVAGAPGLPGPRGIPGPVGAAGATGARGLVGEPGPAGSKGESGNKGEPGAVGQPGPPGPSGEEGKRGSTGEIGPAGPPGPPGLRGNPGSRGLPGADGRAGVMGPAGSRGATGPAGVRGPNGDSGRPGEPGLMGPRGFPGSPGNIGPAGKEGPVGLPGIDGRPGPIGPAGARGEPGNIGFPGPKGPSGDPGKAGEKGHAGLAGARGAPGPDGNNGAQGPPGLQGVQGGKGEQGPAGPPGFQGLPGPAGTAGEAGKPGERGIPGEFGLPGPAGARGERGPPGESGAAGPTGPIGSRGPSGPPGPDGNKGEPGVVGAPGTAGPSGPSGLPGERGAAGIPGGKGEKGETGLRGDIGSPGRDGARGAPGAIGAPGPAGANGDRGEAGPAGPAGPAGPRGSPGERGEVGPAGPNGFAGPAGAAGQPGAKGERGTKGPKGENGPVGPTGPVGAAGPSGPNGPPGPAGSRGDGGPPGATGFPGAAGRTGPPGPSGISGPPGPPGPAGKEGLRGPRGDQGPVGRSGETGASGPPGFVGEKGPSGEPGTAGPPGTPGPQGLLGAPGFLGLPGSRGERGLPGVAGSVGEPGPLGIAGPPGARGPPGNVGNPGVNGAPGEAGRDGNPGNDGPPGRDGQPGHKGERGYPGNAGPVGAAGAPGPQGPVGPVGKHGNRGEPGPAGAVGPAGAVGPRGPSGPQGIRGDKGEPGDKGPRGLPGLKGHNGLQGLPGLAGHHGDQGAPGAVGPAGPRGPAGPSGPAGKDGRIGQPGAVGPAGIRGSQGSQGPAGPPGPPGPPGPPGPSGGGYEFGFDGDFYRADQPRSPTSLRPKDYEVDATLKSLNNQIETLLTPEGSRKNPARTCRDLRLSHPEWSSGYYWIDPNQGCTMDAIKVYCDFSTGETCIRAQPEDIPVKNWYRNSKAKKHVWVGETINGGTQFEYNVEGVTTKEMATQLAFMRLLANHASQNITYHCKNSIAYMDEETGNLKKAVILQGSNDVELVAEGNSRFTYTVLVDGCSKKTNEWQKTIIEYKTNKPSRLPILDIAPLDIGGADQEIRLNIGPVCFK

Results are given in words; binding and its absence hold for the method and conditions named. Some binding calls cover weakened binding; strength is not graded here. Where a sequence is shown, tags or fusion partners need not be part of it.

The target in the assay is collagen type I, bovine tendon, as absorbable collagen sponge (ACS) (bovine) (UniProt P02453+P02465). Nature of the assay: fluorescence microscopy of the sponge; ACS inside polyimide implant tubes submerged in Dylight 488 rhBMP-2 for 1 h, rinsed with water to remove unbound rhBMP-2; both purified.

B1: recombinant human bone morphogenic protein 2, tagged with Dylight 488 (ligand, UniProt P12643 283-396)
chain: QAKHKQRKRLKSSCKRHPLYVDFSDVGWNDWIVAPPGYHAFYCHGECPFPLADHLNSTNHAIVQTLVNSVNSKIPKACCVPTELSAISMLYLDENEKVVLKNYQDMVVEGCGCR
modifications: Dylight 488 (amino reactive NHS ester dye)
Take B1: the binding result was “binds”.
